Library screening results

Data taken from ChEMBL document CHEMBL3988442, “University of Dundee, Small-Polar-MMV Screening Library” (2021).

The filed quantity is “Percent Effect” (%).
The record does not define 0% and 100%; most values in the screen are far below 50% and negative numbers occur (in some assays of this library far below -100).
The compounds are a random part of those screened.

Mtb growth Cornell: 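Whole-cell assay for inhibitors of Mycobacterium tuberculosis growth, labelled Cornell in the record; the read-out is not stated. The concentration is filed as 10 mM, unlikely as a test dose, so the dose is not known. Higher means stronger inhibition (inferred from two other growth screens of the library). Of about 53,000 compounds tested this way, about 900 (1.7%) reached 50% or more in at least one test.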
Mtb heat-shock: 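Assay on Mycobacterium tuberculosis, filed only as a heat shock assay from Cornell; the read-out is not stated. The concentration is filed as 10 mM, unlikely as a test dose, so the dose is not known. Higher reads as stronger inhibition (inferred: compounds with an IC50 in retests scored well above the rest). Size under these conditions: about 69,000 compounds, about 930 of them at 50% or above in at least one test.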

{"compound": "O=C(Nc1ccc(CC(=O)N2CCCC2)cc1)NC1CC1", "Mtb growth Cornell": -13.27, "Mtb heat-shock": 2.812}
{"compound": "CCCN1CCN(Cc2cc3cc(OCC)ccc3[nH]c2=O)CC1", "Mtb growth Cornell": 16.06, "Mtb heat-shock": -24.68}
{"compound": "CCS(=O)(=O)CCn1ccc(NC(=O)CCc2cccc(C)c2)n1", "Mtb growth Cornell": -1.464, "Mtb heat-shock": 19.6}
{"compound": "O=C(O)C(F)(F)F.O=C(O)C(F)(F)F.[H][C@@]12CN(Cc3ccoc3)CCO[C@]1([H])CN(Cc1ccco1)C2", "Mtb growth Cornell": 13.41, "Mtb heat-shock": -7.055}
{"compound": "COC(=O)c1cc(C(=O)N2CCN(C)CC2)n(-c2ccccc2)n1", "Mtb heat-shock": -34.44}
{"compound": "CN(C)C(=O)CN1C(=O)CCC12CCN(Cc1cccs1)CC2.O=C(O)C(F)(F)F", "Mtb growth Cornell": -68.58, "Mtb heat-shock": -16.12}
{"compound": "COCc1cc(N2CCc3onc(-c4cccc(OC)c4)c3C2)ncn1", "Mtb growth Cornell": 25.42, "Mtb heat-shock": 31.7}
{"compound": "[H][C@@]12C[C@H](C(=O)N(C)C)[C@@]([H])(CN(c3ncc(CC)cn3)C1)O2", "Mtb growth Cornell": 34.9, "Mtb heat-shock": -0.1965}
{"compound": "Cc1cnn(CC2CCCCN2Cc2ncc(C(C)(C)C)o2)c1", "stereo": "stereo not shown", "Mtb growth Cornell": 1.167, "Mtb heat-shock": -8.099}
{"compound": "CN(Cc1ccc2c(c1)OCO2)C(=O)c1ccc(C2CCCO2)s1", "stereo": "stereo not shown", "Mtb growth Cornell": -24.01, "Mtb heat-shock": 30.99}
{"compound": "CCc1nc(C)c(C(C)N(C)CCc2ccccn2)s1", "stereo": "stereo not shown", "Mtb growth Cornell": -37.52, "Mtb heat-shock": -2.308}
{"compound": "O=C(NC1CCN(CC2CC2)C1)c1ccc(C(=O)c2cc[nH]c2)cc1", "stereo": "stereo not shown", "Mtb heat-shock": 11.33}
{"compound": "c1coc(CN2CCC3(CC2)COC(COCC2CCOCC2)C3)c1", "stereo": "stereo not shown", "Mtb growth Cornell": 28.65, "Mtb heat-shock": 3.182}
{"compound": "COc1cccc(OC2CN(C(=O)C3CCCN(C(=O)N(C)C)C3)C2)c1", "stereo": "stereo not shown", "Mtb growth Cornell": -19.77, "Mtb heat-shock": -6.046}
{"compound": "N#Cc1cccc(OCCN2CCCC2C(=O)Nc2nccs2)c1", "stereo": "stereo not shown", "Mtb heat-shock": 6.673}
{"compound": "Cc1nc(CN2CCC(NS(C)(=O)=O)CC2)co1", "Mtb growth Cornell": 19, "Mtb heat-shock": -10.38}
{"compound": "CCNc1ncc(C(=O)NCc2ccc(F)c(C(F)(F)F)c2)cn1", "Mtb growth Cornell": -33.7, "Mtb heat-shock": -0.1636}
{"compound": "O=C(c1cnc(NCCC2CCCO2)c(Cl)c1)N1CCCCC1", "stereo": "stereo not shown", "Mtb growth Cornell": 8.101, "Mtb heat-shock": -14.36}
{"compound": "CC(C)=CCN1CCN(C(C)c2cccnc2)CC1", "stereo": "stereo not shown", "Mtb growth Cornell": 32.93, "Mtb heat-shock": -50.2}
{"compound": "CN1CCN(C(=O)Cc2cccc(F)c2)Cc2cccnc21.O=C(O)C(F)(F)F", "Mtb growth Cornell": 15.45, "Mtb heat-shock": -23.79}
{"compound": "Cc1ccc(CC(=O)N2CCCn3nnc(Cn4cccn4)c3C2)cc1", "Mtb growth Cornell": -12.55, "Mtb heat-shock": -3.476}
{"compound": "O=C(c1ccccn1)N1CCC2(CC1)CN(c1cncnc1)C(=O)CO2", "Mtb growth Cornell": -24.35, "Mtb heat-shock": -2.233}
{"compound": "Cc1nc(CCNC(Cc2ccncc2)C(F)(F)F)cs1", "stereo": "stereo not shown", "Mtb growth Cornell": 0.3729, "Mtb heat-shock": -1.711}
{"compound": "O=C(O)C(F)(F)F.O=C(O)C(F)(F)F.[H][C@]12CC(Cn3cccn3)N(C)[C@@]1([H])CCN(C(=O)c1cccc(C#N)c1)C2", "stereo": "stereo partly shown", "Mtb heat-shock": -28.5}
{"compound": "CCN(CC)C(=O)COc1ccnc2cc(OC)ccc12", "Mtb growth Cornell": -1.978, "Mtb heat-shock": 1.08}
{"compound": "CN(Cc1ccc(F)cc1)C(=O)Cn1nc(-c2ccc(F)cc2)oc1=O", "Mtb growth Cornell": -21.73, "Mtb heat-shock": -19.9}
{"compound": "Cn1ccnc1CN1CCc2ncnc(N3CCCC3)c2CC1.O=C(O)C(F)(F)F", "Mtb growth Cornell": 6.889, "Mtb heat-shock": 6.034}
{"compound": "CCn1nccc1CN(C)c1nc(N)nc2c1nc(C)n2C", "Mtb growth Cornell": -2.939, "Mtb heat-shock": -4.157}
{"compound": "CN(C)CCN1C(=O)CCC12CCCN(C(=O)N(C)C)CC2.O=C(O)C(F)(F)F", "stereo": "stereo not shown", "Mtb growth Cornell": 25.99, "Mtb heat-shock": -13.38}
{"compound": "CC(C)(C)N1CC(C(=O)N2CCN(CCc3ccccc3)CC2)CC1=O", "stereo": "stereo not shown", "Mtb growth Cornell": 15.6, "Mtb heat-shock": -6.956}
{"compound": "[H][C@@]12CCC(=O)N(CCc3c[nH]cn3)[C@]1([H])CCN(Cc1ccc(Cl)s1)C2", "Mtb growth Cornell": 35, "Mtb heat-shock": -2.731}
{"compound": "CC(C)c1nnc2n1CCN(C(=O)c1ccc(S(C)(=O)=O)cc1)C2", "Mtb growth Cornell": -3.579, "Mtb heat-shock": 19}
{"compound": "CCc1nc(CN(C)Cc2nnc(-c3cccs3)o2)cs1", "Mtb growth Cornell": 57.32, "Mtb heat-shock": 42.14}
{"compound": "COCCn1cnnc1CCn1ccnc1-c1ccccc1Cl", "Mtb growth Cornell": 24.63, "Mtb heat-shock": 5.046}
{"compound": "O=C(NC[C@H]1OC[C@@H](NC2CCC(F)(F)CC2)[C@@H]1O)C1CCCC1", "Mtb growth Cornell": -0.05927, "Mtb heat-shock": -5.342}
{"compound": "CCCc1noc(CN2CCC(N(C)Cc3nnc(C4CC4)o3)C2)n1", "stereo": "stereo not shown", "Mtb heat-shock": -19.14}
{"compound": "Cc1nn(C)c(Cl)c1CNCc1ccc(OCC(N)=O)cc1", "Mtb heat-shock": -0.9847}
{"compound": "CN(Cc1ccc(F)cc1)C(=O)NCC1(N2CCOCC2)CCSC1", "stereo": "stereo not shown", "Mtb heat-shock": -15.85}

Repeated from the top, 3 entries:

Compound	Mtb growth Cornell	Mtb heat-shock
O=C(Nc1ccc(CC(=O)N2CCCC2)cc1)NC1CC1	-13.27	2.812
CCCN1CCN(Cc2cc3cc(OCC)ccc3[nH]c2=O)CC1	16.06	-24.68
CCS(=O)(=O)CCn1ccc(NC(=O)CCc2cccc(C)c2)n1	-1.464	19.6